Experimental data: US20160201132A1, “GENE EXPRESSION BIOMARKERS OF LAQUINIMOD RESPONSIVENESS” (Teva Pharmaceutical Industries Ltd., priority 2013, published 2016)
Further values from the same series stand in other lists.

System: PBMC of RRMS patients
Test: Gene expression microarray analysis (HG-U133A-2) of PBMC from RRMS patients treated with LAQ, ancillary study to ALLEGRO
Format: in vivo, human
Excerpt: The goal of this ancillary study was to characterize gene expression changes and corresponding biological mechanisms induced in PBMC of RRMS patients by LAQ treatment. According to ALLEGRO clinical trial inclusion criteria, 25 patients were randomly assigned to receive LAQ (n=13, age 38.8±2.3 years, female/male ratio: 8/5) or placebo (n=12, age 37.2±3.4 years, female/male ratio: 8/4).
Peripheral blood samples were obtained from RRMS patients at baseline before start of LAQ treatment or placebo, after 0, 1, 6 and 24 month of treatment (visit 0, 1, 6 and 7 according to ALLEGRO clinical trial protocol correspondently) for gene microarray analysis.
Briefly, 1) Peripheral blood mononuclear cells (PBMC) were obtained from RRMS patients that participated in ALLEGRO and were treated daily with 0.6 mg LAQ or placebo. PBMC were subjected for gene expression analysis (HU-133A-2-Affymatrix arrays) at baseline and at 1 and 6 months of LAQ treatment; 2) Data was analyzed by Partek Genomics Solution software. Most informative genes (MIGs) were defined as those that differentiated between groups with p<0.01. Gene functional annotation, enrichment and pathway analysis were performed by Ingenuity software. For each time point, genes that changed in placebo group were excluded from further analysis; and 3) Verification of LAQ related mechanism was performed by Western blot.
PBMC were extracted from 15 ml peripheral blood, separated by Ficoll-Hypaque gradient. Total RNA was extracted using both Trizol (Invitrogen, USA) and Phase-Lock-Gel columns (Eppendorf, Germany) including a DNase digestion step. RNA integrity was assessed by RNA Experion automated electrophoresis system (Bio-Rad Laboratories, Hercules, Calif.).
Probe synthesis using 3 μg total RNA, hybridization, detection, and scanning was performed according to the standard Affymetrix, Inc. USA protocols; cDNA was synthesized using the Two-Cycle cDNA Synthesis Kit (Affymetrix, Inc., USA), and in-vitro transcription performed with the GeneChip IVT Labeling Kit (Affymetrix, Inc., USA). The biotin-labeled IVT-RNA was hybridized to HG-U133A-2 arrays containing 18,400 gene transcripts, each corresponding to 14,500 well-annotated human genes, washed in a GeneChip Fluidics Station 450 (Hewlett Packard, USA, GeneArray-™ scanner G2500A) and scanned according to the manufacturer's protocol (Affymetrix, Inc., USA).
Data analysis was performed on Partek Genomics Solution software (www.partek.com; Partek Incorporated, St. Louis, Mo.). Expression values were computed from raw CEL files by applying the Robust Multi-Chip Average (RMA) background correction algorithm. RMA correction included: 1) values background correction; 2) quintile normalization; 3) log 2 transformation; and 4) median polish summarization. The ANOVA, Repeated Measures and correlation analysis implicated in Partek software ware applied to evaluate LAQ effects. Most informative genes MIGs were defined as those that differentiated between experimental groups with p<0.01. All p-values were calculated for False Discovery Rate (FDR) multiple test correction at p=0.05.
Additionally, significance of individual genes was tested by parametric T-test and non parametric Mann-Whitney test using Bootstrapping approach based on repeated permutations of the data with 5% FDR for multiple testing.
Gene functional annotation, enrichment, and pathway analyses to identify the leading biological pathways that operated under LAQ treatment were performed by Ingenuity Pathways Analysis software (www.ingenuity.com).
ANOVA analysis was used to compare PBMC gene expression after 1, 6 or 24 month of LAQ treatment with baseline gene expression.
For each time point inventors performed analysis source of variation in dataset. (FIG. 1). Age, gender and batch effects were considered as confounders regarding LAQ or Placebo related changes. For each time point genes associated with Placebo effect were evaluated and excluded from further analysis. […]

CCN(C(=O)c1c(O)c2c(Cl)cccc2n(C)c1=O)c1ccccc1 [LAQ, 5-chloro-N-ethyl-4-hydroxy-1-methyl-2-oxo-N-phenyl-1,2-dihydroquinoline-3-carboxamide]
Fold-Change (4.0 vs. 0.0) (gene CA5A, after six months of LAQ): −1.23
Fold-Change (4.0 vs. 0.0) (gene CACNB2, PBMC, six months of LAQ treatment): −1.118
Fold-Change (4.0 vs. 0.0) (gene CADM4, six months of treatment): −1.1601
Fold-Change (4.0 vs. 0.0) (gene CALB2, six months of treatment): −1.146
Fold-Change (4.0 vs. 0.0) (gene CALCB, after six months of LAQ): −1.133
Fold-Change (4.0 vs. 0.0) (gene CALD1, after six months of LAQ): −1.356
Fold-Change (4.0 vs. 0.0) (gene CAMK1G): −1.187
Fold-Change (4.0 vs. 0.0) (gene CAP2, after six months of LAQ): −1.132
Fold-Change (4.0 vs. 0.0) (gene CAPN6, six months of treatment): −1.156
Fold-Change (4.0 vs. 0.0) (gene CAPN9, after six months of LAQ): −1.136
Fold-Change (4.0 vs. 0.0) (gene CARD14): −1.189
Fold-Change (4.0 vs. 0.0) (gene CASP7, after six months of LAQ): −1.251
Fold-Change (4.0 vs. 0.0) (gene CBL): −1.189
Fold-Change (4.0 vs. 0.0) (gene CCDC81, after six months of LAQ): −1.133
Fold-Change (4.0 vs. 0.0) (gene CCL19, after six months of LAQ): −1.127
Fold-Change (4.0 vs. 0.0) (gene CCT8L2, after six months of LAQ): −1.245
Fold-Change (4.0 vs. 0.0) (gene CD80, after six months of LAQ): −1.306
Fold-Change (4.0 vs. 0.0) (gene CDC42EP4, after six months of LAQ): −1.238
Fold-Change (4.0 vs. 0.0) (gene CDC45L): −1.195
Fold-Change (4.0 vs. 0.0) (gene CDH2, after six months of LAQ): −1.128
Fold-Change (4.0 vs. 0.0) (gene CDH11): −1.189
Fold-Change (4.0 vs. 0.0) (gene CDH16, after six months of LAQ): −1.133
Fold-Change (4.0 vs. 0.0) (gene CDH20, six months of treatment): −1.154
Fold-Change (4.0 vs. 0.0) (gene CDH22, six months of treatment): −1.148
Fold-Change (4.0 vs. 0.0) (gene CDK6, after six months of LAQ): −1.139
Fold-Change (4.0 vs. 0.0) (gene CDKL2): −1.189
Fold-Change (4.0 vs. 0.0) (gene CELA2A /// CELA2B, after six months of LAQ): −1.138
Fold-Change (4.0 vs. 0.0) (gene CELA2A, six months of treatment): −1.15
Fold-Change (4.0 vs. 0.0) (gene CFTR): −1.185
Fold-Change (4.0 vs. 0.0) (gene CFTR, PBMC, six months of LAQ treatment): −1.0898
Fold-Change (4.0 vs. 0.0) (gene CHD5, after six months of LAQ): −1.137
Fold-Change (4.0 vs. 0.0) (gene CHI3L1, after six months of LAQ): −1.134
Fold-Change (4.0 vs. 0.0) (gene CHN1, after six months of LAQ): −1.2914
Fold-Change (4.0 vs. 0.0) (gene CHP2, after six months of LAQ): −1.13
Fold-Change (4.0 vs. 0.0) (gene CHRD, six months of treatment): −1.152
Fold-Change (4.0 vs. 0.0) (gene CHRNA3, after six months of LAQ): −1.124
Fold-Change (4.0 vs. 0.0) (gene CHRNA6, six months of treatment): −1.158
Fold-Change (4.0 vs. 0.0) (gene CHST3): −1.191
Fold-Change (4.0 vs. 0.0) (gene CIB2, six months of treatment): −1.158
Fold-Change (4.0 vs. 0.0) (gene CIDEA, after six months of LAQ): −1.138
Fold-Change (4.0 vs. 0.0) (gene CLCF1, after six months of LAQ): −1.2966
Fold-Change (4.0 vs. 0.0) (gene CLCNKA /// CLCNKB, after six months of LAQ): −1.132
Fold-Change (4.0 vs. 0.0) (gene CLCNKB, after six months of LAQ): −1.271
Fold-Change (4.0 vs. 0.0) (gene CLDN1, after six months of LAQ): −1.124
Fold-Change (4.0 vs. 0.0) (gene CLDN4): −1.1878
Fold-Change (4.0 vs. 0.0) (gene CLDN18): −1.1916
Fold-Change (4.0 vs. 0.0) (gene CLIC4, after six months of LAQ): −1.24
Fold-Change (4.0 vs. 0.0) (gene CLOCK, after six months of LAQ): −1.141
Fold-Change (4.0 vs. 0.0) (gene CLTA, PBMC, six months of LAQ treatment): −1.099
Fold-Change (4.0 vs. 0.0) (gene CMA1, after six months of LAQ): −1.245
Fold-Change (4.0 vs. 0.0) (gene CNGB1, after six months of LAQ): −1.136
Fold-Change (4.0 vs. 0.0) (gene CNOT3, PBMC, six months of LAQ treatment): −1.108
Fold-Change (4.0 vs. 0.0) (gene CNTD2, after six months of LAQ): −1.229
Fold-Change (4.0 vs. 0.0) (gene CNTF /// ZFP91 /// ZFP91-CNTF, after six months of LAQ): −1.144
Fold-Change (4.0 vs. 0.0) (gene COBLL1, after six months of LAQ): −1.346
Fold-Change (4.0 vs. 0.0) (gene COL1A1, after six months of LAQ): −1.143
Fold-Change (4.0 vs. 0.0) (gene COL4A1, PBMC, six months of LAQ treatment): −1.116
Fold-Change (4.0 vs. 0.0) (gene COL4A3, after six months of LAQ): −1.14
Fold-Change (4.0 vs. 0.0) (gene COL4A6, after six months of LAQ): −1.135
Fold-Change (4.0 vs. 0.0) (gene COL4A6, six months of treatment): −1.157
Fold-Change (4.0 vs. 0.0) (gene COL5A1, after six months of LAQ): −1.138
Fold-Change (4.0 vs. 0.0) (gene COL6A1, PBMC, six months of LAQ treatment): −1.115
Fold-Change (4.0 vs. 0.0) (gene COL17A1, after six months of LAQ): −1.139
Fold-Change (4.0 vs. 0.0) (gene COMT, PBMC, six months of LAQ treatment): −1.119
Fold-Change (4.0 vs. 0.0) (gene CPA1, after six months of LAQ): −1.132
Fold-Change (4.0 vs. 0.0) (gene CPB2, after six months of LAQ): −1.133
Fold-Change (4.0 vs. 0.0) (gene CPLX3 /// LMAN1L, six months of treatment): −1.153
Fold-Change (4.0 vs. 0.0) (gene CPM, six months of treatment): −1.145
Fold-Change (4.0 vs. 0.0) (gene CPN2, after six months of LAQ): −1.13
Fold-Change (4.0 vs. 0.0) (gene CPT2, after six months of LAQ): −1.32
Fold-Change (4.0 vs. 0.0) (gene CREB3L1, after six months of LAQ): −1.225
Fold-Change (4.0 vs. 0.0) (gene CRISP2, after six months of LAQ): −1.137
Fold-Change (4.0 vs. 0.0) (gene CRMP1): −1.188
Fold-Change (4.0 vs. 0.0) (gene CRYBB2, after six months of LAQ): −1.273
Fold-Change (4.0 vs. 0.0) (gene CSF1, after six months of LAQ): −1.225
Fold-Change (4.0 vs. 0.0) (gene CSH1, after six months of LAQ): −1.141
Fold-Change (4.0 vs. 0.0) (gene CSN2, after six months of LAQ): −1.137
Fold-Change (4.0 vs. 0.0) (gene CSPG5, after six months of LAQ): −1.125
Fold-Change (4.0 vs. 0.0) (gene CST6, after six months of LAQ): −1.33
Fold-Change (4.0 vs. 0.0) (gene CST8, six months of treatment): −1.156
Fold-Change (4.0 vs. 0.0) (gene CTNNAL1, after six months of LAQ): −1.408
Fold-Change (4.0 vs. 0.0) (gene CTRC, after six months of LAQ): −1.228
